Laboratory results reported in patent publication US8198322B2, “Apoptotic and anti-tumor activities of metallo-salens” (Board of Regents, The University of Texas System, priority 2008, dated 2012).
Some of these results come from one statement about several compounds together. At least one structure is not confirmed: it was looked up by name or label, or the drawing left a doubt.

Assays:
Type in all cases: cell-based, human
MCF-7 cells [1] = assay: Cell viability assay (MTT, DIC microscopy) at 20 μM; conditions: MCF-7, 20 μM, up to 96 hrs
Procedure: (A-F): MCF-7 cells were treated with 20 μM metallo-salens and incubated for varying time periods (24-96 hrs). Viable cells were quantified using MTT assay. The percent viable cells (relative to control, treated with equivalent amount of DMSO) were plotted as a function of time for each compound. This experiment was repeated twice with 8 replicate treatments each time. Bars indicates standard errors of mean (SEM). Curves 1-42 in FIGS. 2A-2F, represent the viability curves for compounds 1-42 respectively. (A′-F′) DIC images of the corresponding MCF-7 cells that were treated with DMSO (control panel), or with 20 μM Mn(III)- and Fe(III)-salen complexes for 72 hrs showing the visual effects on cellular morphology and growth/death.
Cell viability assay: Approximately 10,000 MCF-7 cells were seeded into each well of a 96 well micro titer plate and incubated 24 hrs in presence of 150 μL DMEM. An additional 50 μL DMEM containing required amount of each metallo-salen to obtain 20 μM final concentrations (in 200 μL final volume) in 8 replicate wells were added. Control wells were treated with equivalent amount of dimethylsulfoxide (DMSO). The viability of the cells was assayed at 24, 48, 72 and 96 hrs post treatment by using both microscopic observation and MTT assay. For microscopic observation cells were stained with trypan blue for at least 10 minute and observed under Differential Interference Contrast (DIC) setting of a fluorescence microscope (Nikon Eclipse TE2000-U, Japan). The MTT assay was performed as described previously^42. In brief, 20 μL MTT (5 mg/ml in PBS) was added into each wells and incubated for 2 hrs under normal growth condition to allow the viable cell to convert MTT to formazan. Then the media was discarded and formazan crystals were dissolved by adding 100 μL of DMSO and incubating 2 hrs with continuous shaking. The absorbance of the lysates were directly measured at 560 nm using a micro plate reader (Fluostar-omega, BMG Labtech). The absorbance values (which are proportional to the viable cell) are plotted as a function of time. The studies were repeated twice with 8 replicates each time.
The inventors studied the effect of Mn(III)-salen and Fe(III)-salen derivatives on the cell viability of cultured breast cancer cells MCF-7 in order to investigate the biochemical effects of the derivatives. The cells were incubated alone or with 20 μM of each of the metallo-salen derivatives separately (compounds 1-45) for varying time periods (0-96 hrs). The viable cells were quantified using MTT assay and the percent of cell survived (relative to the control untreated cells) were plotted against time (FIGS. 2A-2F).

MCF-7 cells [2] = assay: Nuclear fragmentation with DAPI staining; conditions: MCF-7, 100 μM, 24 hrs
MCF-7 cells [3] = assay: Cytotoxicity assay (IC50 measurement, MTT); conditions: MCF-7, 96 hrs, read-out: IC50 values for different complexes in MCF-7 cells
Procedure: Cytotoxicity assay (IC50 measurement): The cytotoxicity of Fe(III)-salen and its derivatives was determined by using MTT assay as described previously^42. In brief, approximately 10,000 MCF-7 cells were seeded into each well of a 96 well micro titer plate and incubated 24 hrs in presence of 150 μL DMEM. An additional 50 μL DMEM containing required amount of each metallo-salen to obtain 0.05 to 60 μM final concentration (in 200 μL final volume) in 8 replicate wells were added. Control wells were treated with equivalent amount of DMSO. After 96 hrs of incubation, 20 μL of MTT (5 mg/mL) was added into each well and cell viability was assayed by measuring the formazan absorption at 560 nm as described above. The absorbance (at 560 nm) values were plotted against concentration of metallo-salens to determine the IC50. The studies were repeated twice with 8 replicates each time.
The concentration of the metal-complexes at which the conversion of MTT to formazan by viable cells is reduced by 50% compared to control cells is defined as the IC50. The percent of cell survival relative to the control cells were plotted as a function of concentration of the metallo-salen derivatives.

Compound	effect on cell viability (in words) (MCF-7 cells [1])	effect on nuclear morphology (DAPI staining) (MCF-7 cells [2])	IC50 (MCF-7 cells [3]) [µM]
5,5′-Dimethoxysalnaphen Fe(III) chloride [compound 42]	very efficient in inducing cell death	significant effects on nuclear morphology and fragmentation	
CC(=O)[O-].[Mn+3].[O-]c1ccccc1C=NCCN=Cc1ccccc1[O-] [compound 1, Mn(III)-salen acetate]		induced significant morphological changes with more intense DAPI staining, highly condensed and fragmented nucleus	
CC(=O)[O-].[Mn+3].[O-]c1c(O)cccc1C=NCCN=Cc1cccc(O)c1[O-] [compound 2, 3,3′-Dihydroxysalen Mn(III) acetate]		induced significant morphological changes with more intense DAPI staining, highly condensed and fragmented nucleus	> 40
CC(=O)[O-].[Mn+3].[O-]c1ccc(O)cc1C=NCCN=Cc1cc(O)ccc1[O-] [compound 4, 5,5′-Dihydroxysalen Mn(III) acetate]		induced significant morphological changes with more intense DAPI staining, highly condensed and fragmented nucleus	> 40
CC(=O)[O-].COc1cccc(C=NCCN=Cc2cccc(OC)c2[O-])c1[O-].[Mn+3] [compound 5, 3,3′-Dimethoxysalen Mn(III) acetate]		induced significant morphological changes with more intense DAPI staining, highly condensed and fragmented nucleus	< 20
CC(=O)[O-].COc1ccc(C=NCCN=Cc2ccc(OC)cc2[O-])c([O-])c1.[Mn+3] [compound 6, 4,4′-Dimethoxysalen Mn(III) acetate]		induced significant morphological changes with more intense DAPI staining, highly condensed and fragmented nucleus	
CC(=O)[O-].COc1ccc([O-])c(C=NCCN=Cc2cc(OC)ccc2[O-])c1.[Mn+3] [compound 7, 5,5′-Dimethoxysalen Mn(III) acetate]		induced significant morphological changes with more intense DAPI staining, highly condensed and fragmented nucleus	< 20
CC(=O)[O-].[Mn+3].[O-]c1ccccc1C=Nc1ccccc1N=Cc1ccccc1[O-] [compound 8, Mn(III)-salphen acetate]		induced significant morphological changes with more intense DAPI staining, highly condensed and fragmented nucleus	
CC(=O)[O-].[Mn+3].[O-]c1c(O)cccc1C=Nc1ccccc1N=Cc1cccc(O)c1[O-] [compound 9, 3,3′-Dihydroxysalphen Mn(III) acetate]		induced significant morphological changes with more intense DAPI staining, highly condensed and fragmented nucleus	< 20
CC(=O)[O-].[Mn+3].[O-]c1ccc(O)cc1C=Nc1ccccc1N=Cc1cc(O)ccc1[O-] [compound 11, 5,5′-Dihydroxysalphen Mn(III) acetate]		induced significant morphological changes with more intense DAPI staining, highly condensed and fragmented nucleus	> 40
CC(=O)[O-].COc1cccc(C=Nc2ccccc2N=Cc2cccc(OC)c2[O-])c1[O-].[Mn+3] [compound 12, 3,3′-Dimethoxysalphen Mn(III) acetate]		induced significant morphological changes with more intense DAPI staining, highly condensed and fragmented nucleus	
CC(=O)[O-].COc1ccc(C=Nc2ccccc2N=Cc2ccc(OC)cc2[O-])c([O-])c1.[Mn+3] [compound 13, 4,4′-Dimethoxysalphen Mn(III) acetate]		induced significant morphological changes with more intense DAPI staining, highly condensed and fragmented nucleus	
CC(=O)[O-].COc1ccc([O-])c(C=Nc2ccccc2N=Cc2cc(OC)ccc2[O-])c1.[Mn+3] [compound 14, 5,5′-Dimethoxysalphen Mn(III) acetate]		induced significant morphological changes with more intense DAPI staining, highly condensed and fragmented nucleus	> 40
CC(=O)[O-].[Mn+3].[O-]c1ccccc1C=Nc1cc2ccccc2cc1N=Cc1ccccc1[O-] [compound 15, Mn(III)-salnaphen acetate]		induced significant morphological changes with more intense DAPI staining, highly condensed and fragmented nucleus	
CC(=O)[O-].[Mn+3].[O-]c1c(O)cccc1C=Nc1cc2ccccc2cc1N=Cc1cccc(O)c1[O-] [compound 16, 3,3′-Dihydroxysalnaphen Mn(III) acetate]		induced significant morphological changes with more intense DAPI staining, highly condensed and fragmented nucleus	> 40
CC(=O)[O-].[Mn+3].[O-]c1cc(O)ccc1C=Nc1cc2ccccc2cc1N=Cc1ccc(O)cc1[O-] [compound 17, 4,4′-Dihydroxysalnaphen Mn(III) acetate]		induced significant morphological changes with more intense DAPI staining, highly condensed and fragmented nucleus	
CC(=O)[O-].COc1cccc(C=Nc2cc3ccccc3cc2N=Cc2cccc(OC)c2[O-])c1[O-].[Mn+3] [compound 19, 3,3′-Dimethoxysalnaphen Mn(III) acetate]		induced significant morphological changes with more intense DAPI staining, highly condensed and fragmented nucleus	> 40
CC(=O)[O-].COc1ccc(C=Nc2cc3ccccc3cc2N=Cc2ccc(OC)cc2[O-])c([O-])c1.[Mn+3] [compound 20, 4,4′-Dimethoxysalnaphen Mn(III) acetate]		induced significant morphological changes with more intense DAPI staining, highly condensed and fragmented nucleus	
CC(=O)[O-].COc1ccc([O-])c(C=Nc2cc3ccccc3cc2N=Cc2cc(OC)ccc2[O-])c1.[Mn+3] [compound 21, 5,5′-Dimethoxysalnaphen Mn(III) acetate]		induced significant morphological changes with more intense DAPI staining, highly condensed and fragmented nucleus	< 20
[Cl-].[Fe+3].[O-]c1ccccc1C=NCCN=Cc1ccccc1[O-] [compound 22, Fe(III)-salen chloride]		significant effects on nuclear morphology and fragmentation	
[Cl-].[Fe+3].[O-]c1c(O)cccc1C=NCCN=Cc1cccc(O)c1[O-] [compound 23, 3,3′-Dihydroxysalen Fe(III) chloride]	none of the corresponding hydroxy substituted Fe(III)-salen derivatives (compounds 23-25) killed MCF-7 cells		
COc1ccc(C=NCCN=Cc2ccc(OC)cc2[O-])c([O-])c1.[Cl-].[Fe+3] [compound 27, 4,4′-Dimethoxysalen Fe(III) chloride]		significant effects on nuclear morphology and fragmentation	
COc1ccc([O-])c(C=NCCN=Cc2cc(OC)ccc2[O-])c1.[Cl-].[Fe+3] [compound 28, 5,5′-Dimethoxysalen Fe(III) chloride]		significant effects on nuclear morphology and fragmentation	
[Cl-].[Fe+3].[O-]c1ccccc1C=Nc1ccccc1N=Cc1ccccc1[O-] [compound 29, Fe(III)-salphen.chloride]		significant effects on nuclear morphology and fragmentation	
[Cl-].[Fe+3].[O-]c1ccccc1C=Nc1cc2ccccc2cc1N=Cc1ccccc1[O-] [compound 36, Fe(III)-salnaphen chloride]		significant effects on nuclear morphology and fragmentation	
